Assay results: paper PMC12828543, “Preclinical drug screen identifies WEE1 inhibitor and vinca alkaloid as a combination treatment concept for Li-Fraumeni syndrome medulloblastoma” (iScience, 2025)

System: LFS fibroblasts
Assay: Genotoxicity screen, Micronucleus Test (MNT)
Format: cell-based, human
Design: key: MNT score = number of micronuclei / number of nuclei
Details: Cmax concentration (or concentration causing 20% decrease of viability), 120 h, median
Procedure: To evaluate genotoxicity of compounds, the Micronucleus Test (MNT)[96]^,[97] method was used. […] Next, the cells were visualized using ImageXpress Micro 4 High-Content Imaging System (Molecular Devices, LLC) and 4 images for each well were analyzed with CellProfiler version 4.1.3 (the pipeline described in the supplementary information).
The MNT score for a specific compound was calculated according to a following formula: MNTscore=(numberofmicronuclei/numberofnuclei)
Resulting MNT scores were compared to negative (DMSO) and positive (mitomycin C) control scores using Welch t-test (R version 4.2.2, packages stat, ggplot2). If scores were statistically different from positive control, then the compound was classified as non-genotoxic. If scores were statistically different from negative control, then the compound was classified as genotoxic.

Structure (SMILES): C[C@@H]1COCCN1c1cc(-c2ccnn2C)c2ccnc(-c3ccn[nH]3)c2n1 [BAY-1895344]
- MNT_median (micronucleus test score): 1,10
